# The supplement of paper PMC11732987, “Enantioselective OTUD7B fragment discovery through chemoproteomics screening and high-throughput optimisation” (Communications Chemistry, 2025)
# Sequences of proteins named here, by UniProt entry; tags and fusion partners are left off. A change or cut given only in a name is not applied to a line headed by its entry. Residues count along the entry.
# UniProt Q86TP1: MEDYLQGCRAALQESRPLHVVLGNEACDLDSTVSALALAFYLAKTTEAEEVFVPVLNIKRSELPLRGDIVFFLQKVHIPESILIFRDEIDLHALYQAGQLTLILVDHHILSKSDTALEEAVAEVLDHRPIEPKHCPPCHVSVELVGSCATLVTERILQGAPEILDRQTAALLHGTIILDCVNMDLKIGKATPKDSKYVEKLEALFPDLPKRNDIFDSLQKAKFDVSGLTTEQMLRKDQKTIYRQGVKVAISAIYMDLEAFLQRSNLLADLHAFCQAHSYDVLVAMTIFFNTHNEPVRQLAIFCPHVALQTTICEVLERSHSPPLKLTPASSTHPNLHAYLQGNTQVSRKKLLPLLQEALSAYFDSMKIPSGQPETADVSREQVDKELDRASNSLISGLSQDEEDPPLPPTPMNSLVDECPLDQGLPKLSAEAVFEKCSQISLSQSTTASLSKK
# UniProt Q12923: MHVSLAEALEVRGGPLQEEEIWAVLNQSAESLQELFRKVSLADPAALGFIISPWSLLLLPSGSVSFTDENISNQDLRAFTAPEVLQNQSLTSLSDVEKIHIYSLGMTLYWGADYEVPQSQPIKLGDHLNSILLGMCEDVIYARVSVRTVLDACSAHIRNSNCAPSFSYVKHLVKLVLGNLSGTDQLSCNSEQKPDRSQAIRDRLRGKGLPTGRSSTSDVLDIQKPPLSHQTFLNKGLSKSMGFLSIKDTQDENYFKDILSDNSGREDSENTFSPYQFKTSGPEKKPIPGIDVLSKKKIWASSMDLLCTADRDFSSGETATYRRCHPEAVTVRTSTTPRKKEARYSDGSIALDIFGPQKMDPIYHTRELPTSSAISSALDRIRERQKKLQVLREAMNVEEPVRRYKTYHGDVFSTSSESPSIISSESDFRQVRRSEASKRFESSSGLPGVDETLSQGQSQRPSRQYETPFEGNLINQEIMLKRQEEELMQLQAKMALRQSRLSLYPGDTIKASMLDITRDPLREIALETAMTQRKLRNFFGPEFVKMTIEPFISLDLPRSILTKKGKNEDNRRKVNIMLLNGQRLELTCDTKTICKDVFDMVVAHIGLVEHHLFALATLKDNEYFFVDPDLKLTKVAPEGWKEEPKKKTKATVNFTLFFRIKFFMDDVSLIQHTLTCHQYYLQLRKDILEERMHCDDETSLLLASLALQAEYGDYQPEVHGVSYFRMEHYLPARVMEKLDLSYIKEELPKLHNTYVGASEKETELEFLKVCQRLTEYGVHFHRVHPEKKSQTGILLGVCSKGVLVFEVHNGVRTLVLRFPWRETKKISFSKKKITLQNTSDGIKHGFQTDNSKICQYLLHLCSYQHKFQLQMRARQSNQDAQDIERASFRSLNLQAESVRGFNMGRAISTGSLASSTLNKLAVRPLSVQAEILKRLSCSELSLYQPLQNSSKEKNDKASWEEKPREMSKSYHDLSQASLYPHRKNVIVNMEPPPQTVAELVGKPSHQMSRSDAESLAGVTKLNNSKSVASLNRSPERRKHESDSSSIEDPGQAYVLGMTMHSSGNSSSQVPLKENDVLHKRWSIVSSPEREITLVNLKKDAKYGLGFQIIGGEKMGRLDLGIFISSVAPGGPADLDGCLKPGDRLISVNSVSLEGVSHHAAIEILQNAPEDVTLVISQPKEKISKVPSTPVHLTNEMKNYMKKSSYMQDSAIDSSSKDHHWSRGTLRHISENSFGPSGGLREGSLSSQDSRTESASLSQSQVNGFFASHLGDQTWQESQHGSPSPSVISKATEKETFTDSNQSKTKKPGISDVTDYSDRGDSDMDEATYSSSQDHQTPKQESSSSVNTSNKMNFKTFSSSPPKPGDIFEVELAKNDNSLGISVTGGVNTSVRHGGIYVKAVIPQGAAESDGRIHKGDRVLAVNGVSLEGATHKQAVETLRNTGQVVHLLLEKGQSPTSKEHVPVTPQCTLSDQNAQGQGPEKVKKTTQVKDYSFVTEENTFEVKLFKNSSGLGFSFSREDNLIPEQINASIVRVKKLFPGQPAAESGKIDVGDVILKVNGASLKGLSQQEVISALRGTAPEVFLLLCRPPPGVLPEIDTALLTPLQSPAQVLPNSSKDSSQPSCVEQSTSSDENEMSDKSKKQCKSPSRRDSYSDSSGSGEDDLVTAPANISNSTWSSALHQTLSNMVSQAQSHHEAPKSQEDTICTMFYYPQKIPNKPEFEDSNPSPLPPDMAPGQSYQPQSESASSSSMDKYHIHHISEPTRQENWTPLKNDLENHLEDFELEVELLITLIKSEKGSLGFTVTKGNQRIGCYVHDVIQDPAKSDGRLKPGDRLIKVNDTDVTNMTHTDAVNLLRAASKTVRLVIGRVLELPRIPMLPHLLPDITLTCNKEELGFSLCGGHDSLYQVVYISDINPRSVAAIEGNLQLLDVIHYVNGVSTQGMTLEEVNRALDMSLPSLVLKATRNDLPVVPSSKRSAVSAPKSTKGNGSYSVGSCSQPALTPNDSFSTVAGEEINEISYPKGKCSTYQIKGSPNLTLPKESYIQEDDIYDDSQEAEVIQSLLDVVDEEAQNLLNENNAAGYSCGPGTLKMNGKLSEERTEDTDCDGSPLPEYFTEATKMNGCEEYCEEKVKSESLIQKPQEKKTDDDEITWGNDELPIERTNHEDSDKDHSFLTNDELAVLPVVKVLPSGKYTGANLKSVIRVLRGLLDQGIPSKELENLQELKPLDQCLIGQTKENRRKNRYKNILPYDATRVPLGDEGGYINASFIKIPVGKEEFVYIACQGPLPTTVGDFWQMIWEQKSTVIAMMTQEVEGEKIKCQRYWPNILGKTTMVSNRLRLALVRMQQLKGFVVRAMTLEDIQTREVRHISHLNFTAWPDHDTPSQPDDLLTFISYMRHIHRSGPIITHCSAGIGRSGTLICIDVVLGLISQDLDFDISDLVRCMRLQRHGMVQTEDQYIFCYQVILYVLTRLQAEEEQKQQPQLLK
# UniProt Q7Z7A4: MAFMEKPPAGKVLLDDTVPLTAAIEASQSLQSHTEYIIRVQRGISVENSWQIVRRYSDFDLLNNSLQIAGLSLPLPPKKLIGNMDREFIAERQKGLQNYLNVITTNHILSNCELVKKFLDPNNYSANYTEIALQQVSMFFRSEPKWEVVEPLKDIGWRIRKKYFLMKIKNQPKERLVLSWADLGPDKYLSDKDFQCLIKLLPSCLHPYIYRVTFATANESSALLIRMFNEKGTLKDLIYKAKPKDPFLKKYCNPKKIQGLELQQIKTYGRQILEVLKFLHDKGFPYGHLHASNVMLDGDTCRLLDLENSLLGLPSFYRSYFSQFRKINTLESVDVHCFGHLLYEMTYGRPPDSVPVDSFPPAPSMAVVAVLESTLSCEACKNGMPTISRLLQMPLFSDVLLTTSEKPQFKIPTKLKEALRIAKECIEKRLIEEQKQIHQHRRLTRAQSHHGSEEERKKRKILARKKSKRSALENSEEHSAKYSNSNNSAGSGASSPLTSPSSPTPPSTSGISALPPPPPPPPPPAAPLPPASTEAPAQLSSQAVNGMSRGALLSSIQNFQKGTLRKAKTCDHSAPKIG
# UniProt Q05209: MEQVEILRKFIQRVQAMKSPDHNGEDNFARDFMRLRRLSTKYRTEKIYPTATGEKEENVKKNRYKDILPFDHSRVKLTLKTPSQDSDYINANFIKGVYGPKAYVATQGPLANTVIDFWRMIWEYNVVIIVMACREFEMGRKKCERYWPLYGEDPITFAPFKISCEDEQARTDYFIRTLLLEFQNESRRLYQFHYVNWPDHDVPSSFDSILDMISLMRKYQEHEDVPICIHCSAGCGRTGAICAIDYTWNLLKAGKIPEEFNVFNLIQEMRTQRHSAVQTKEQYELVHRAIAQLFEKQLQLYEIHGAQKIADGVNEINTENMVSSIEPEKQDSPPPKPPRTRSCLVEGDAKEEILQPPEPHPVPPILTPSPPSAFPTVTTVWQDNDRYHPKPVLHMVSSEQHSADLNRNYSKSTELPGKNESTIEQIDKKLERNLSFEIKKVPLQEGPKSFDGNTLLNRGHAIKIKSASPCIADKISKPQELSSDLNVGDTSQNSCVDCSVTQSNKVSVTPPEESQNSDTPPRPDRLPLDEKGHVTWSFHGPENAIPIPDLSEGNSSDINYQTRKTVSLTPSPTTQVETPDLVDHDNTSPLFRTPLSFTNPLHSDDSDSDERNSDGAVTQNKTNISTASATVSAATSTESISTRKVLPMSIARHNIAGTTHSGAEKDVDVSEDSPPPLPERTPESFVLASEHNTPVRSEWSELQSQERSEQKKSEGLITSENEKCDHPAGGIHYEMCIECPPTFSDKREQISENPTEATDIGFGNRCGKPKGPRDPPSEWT
# UniProt P51149, whole entry, looked up: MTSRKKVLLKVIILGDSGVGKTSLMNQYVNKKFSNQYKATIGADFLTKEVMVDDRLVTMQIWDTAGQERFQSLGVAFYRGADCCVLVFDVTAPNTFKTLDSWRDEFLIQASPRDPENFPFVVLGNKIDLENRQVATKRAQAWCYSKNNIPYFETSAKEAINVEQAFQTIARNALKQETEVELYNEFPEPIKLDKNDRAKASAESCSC
# UniProt Q9Y617, 275-298: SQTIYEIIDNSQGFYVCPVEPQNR
# UniProt O75943: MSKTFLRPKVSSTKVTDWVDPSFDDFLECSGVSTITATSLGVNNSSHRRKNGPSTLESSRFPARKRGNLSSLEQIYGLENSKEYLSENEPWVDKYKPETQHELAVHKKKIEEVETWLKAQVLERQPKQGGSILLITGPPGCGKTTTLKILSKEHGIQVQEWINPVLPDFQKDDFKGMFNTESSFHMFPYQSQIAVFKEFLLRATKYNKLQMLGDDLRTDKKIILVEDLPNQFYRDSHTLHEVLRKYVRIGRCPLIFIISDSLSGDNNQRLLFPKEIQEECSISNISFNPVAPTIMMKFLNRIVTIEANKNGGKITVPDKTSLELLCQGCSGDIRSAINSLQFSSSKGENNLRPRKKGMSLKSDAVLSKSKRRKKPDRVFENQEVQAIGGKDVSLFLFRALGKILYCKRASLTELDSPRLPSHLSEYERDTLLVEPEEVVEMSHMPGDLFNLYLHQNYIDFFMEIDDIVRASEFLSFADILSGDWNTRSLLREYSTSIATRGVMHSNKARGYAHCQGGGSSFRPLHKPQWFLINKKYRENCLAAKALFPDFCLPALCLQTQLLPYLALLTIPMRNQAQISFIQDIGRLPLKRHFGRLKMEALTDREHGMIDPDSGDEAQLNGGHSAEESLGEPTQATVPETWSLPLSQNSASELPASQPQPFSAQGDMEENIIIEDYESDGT
# UniProt Q92696: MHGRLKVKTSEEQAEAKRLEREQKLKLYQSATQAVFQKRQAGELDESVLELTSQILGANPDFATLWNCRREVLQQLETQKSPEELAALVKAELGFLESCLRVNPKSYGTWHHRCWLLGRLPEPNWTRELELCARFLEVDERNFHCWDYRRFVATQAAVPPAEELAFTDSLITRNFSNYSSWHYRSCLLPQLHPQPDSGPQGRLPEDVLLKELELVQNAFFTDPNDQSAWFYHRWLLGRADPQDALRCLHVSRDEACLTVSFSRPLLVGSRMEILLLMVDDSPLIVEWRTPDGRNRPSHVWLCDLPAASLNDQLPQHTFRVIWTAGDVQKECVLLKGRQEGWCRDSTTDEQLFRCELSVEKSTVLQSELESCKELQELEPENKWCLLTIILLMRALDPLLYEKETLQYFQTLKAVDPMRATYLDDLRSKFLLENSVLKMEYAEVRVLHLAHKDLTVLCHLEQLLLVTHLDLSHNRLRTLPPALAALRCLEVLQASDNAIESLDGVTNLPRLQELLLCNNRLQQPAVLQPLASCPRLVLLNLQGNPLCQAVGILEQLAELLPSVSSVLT
# UniProt Q13200, 457-478: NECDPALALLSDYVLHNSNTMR
# UniProt Q06609: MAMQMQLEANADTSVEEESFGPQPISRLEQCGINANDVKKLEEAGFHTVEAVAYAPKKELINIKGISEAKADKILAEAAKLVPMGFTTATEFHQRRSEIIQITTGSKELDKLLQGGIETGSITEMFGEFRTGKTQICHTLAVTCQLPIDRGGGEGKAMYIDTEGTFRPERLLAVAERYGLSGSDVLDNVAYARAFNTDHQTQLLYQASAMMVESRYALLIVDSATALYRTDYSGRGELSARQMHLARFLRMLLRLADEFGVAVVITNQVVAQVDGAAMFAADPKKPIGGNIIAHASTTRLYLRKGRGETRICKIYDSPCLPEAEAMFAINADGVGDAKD
# UniProt P35998: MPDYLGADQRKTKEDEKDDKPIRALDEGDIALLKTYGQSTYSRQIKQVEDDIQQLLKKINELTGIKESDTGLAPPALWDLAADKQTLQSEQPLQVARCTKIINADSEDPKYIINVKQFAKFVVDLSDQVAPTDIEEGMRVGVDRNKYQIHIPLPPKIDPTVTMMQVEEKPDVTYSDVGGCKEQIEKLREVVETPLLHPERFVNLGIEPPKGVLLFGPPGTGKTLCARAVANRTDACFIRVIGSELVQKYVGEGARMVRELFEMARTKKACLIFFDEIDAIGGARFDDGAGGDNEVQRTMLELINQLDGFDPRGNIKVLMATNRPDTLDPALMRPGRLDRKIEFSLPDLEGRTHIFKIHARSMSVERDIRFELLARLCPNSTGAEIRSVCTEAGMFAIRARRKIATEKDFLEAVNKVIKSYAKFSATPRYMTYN
# This is one part of the list. The data scatter; read single values as rough.
# How the values were obtained:
# [1] = compound: ClCC(=O)N[C@@H]1CCCc2ccccc12; experiment: log2 mean competition ratio of IA-DTB cysteine labelling (DMSO/compound) (log2 ratio); higher = stronger cysteine engagement by compound; conditions: treatment time: 4 h, cell line lysate: HEK293T
# Procedure: (§1)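 IA-DTB competitive cysteine chemoproteomics in HEK293T RIPA lysate. Lysates were treated with compound 29 or 30 at 50 or 200 µM for 4 h, then IA-DTB (500 µM, 1 h), trypsin-digested, NeutrAvidin-enriched and analysed by diaPASEF. Competition ratio = intensity DMSO / intensity compound (n=4 treated, n=64 DMSO); binding: mean log2 CR ≥ 1 and p ≤ 0.05 plus QC filters. Target is the cysteine site.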
# [2] = compound: ClCC(=O)N[C@H]1CCCc2ccccc12; experiment: as above; conditions: treatment time: 4 h, cell line lysate: HEK293T
# Procedure: as §1
Target,log2 mean competition ratio ([1]; 50 µM),log2 mean competition ratio ([1]; 200 µM),log2 mean competition ratio ([2]; 50 µM),log2 mean competition ratio ([2]; 200 µM)
PRUNE1 C8 (UniProt Q86TP1),-0.0111,0.113,0.0118,0.491
QRSL1 C88 (UniProt Q9H0R6),-0.0569,-0.135,0.175,-0.11
PUS7 C38 (UniProt Q96PZ0),-0.135,-0.0536,0.219,-0.0198
PTPN13 C588 (UniProt Q12923),-0.0631,-0.141,-0.174,0.0434
PXK C570 (UniProt Q7Z7A4),-0.0124,-0.271,0.1,-0.0463
RAC1 C157 (UniProt P63000),0.0996,-0.0196,-0.362,-0.00923
PTPN12 C470 (UniProt Q05209),-0.104,-0.0838,0.237,-0.0128
RAD50 C1302,0.515,0.159,0.475,0.254
RABL6 C491 (UniProt Q3YEC7),-0.211,0.321,-0.417,0.352
RAD50 C1296,-0.116,-0.00449,-0.508,0.0681
PTPN11 C104,-0.0722,-0.54,0.0659,-0.283
PSMD1 C141,-0.0997,-0.0931,-0.0894,-0.168
PTP4A2 C46 (UniProt Q12974),0.2,-0.000641,0.0854,-0.0308
PTPN12 C164 (UniProt Q05209),-0.0213,0.0523,-0.263,-0.0592
PTPN12 C343 (UniProt Q05209),0.0357,0.127,-0.00651,-0.0142
QRSL1 C278 (UniProt Q9H0R6),-0.0199,-0.381,-0.202,-0.344
RAB32 C162 (UniProt Q13637),-0.129,0.0217,0.224,0.105
PTPN13 C798 (UniProt Q12923),0.256,0.386,0.15,0.559
PTPRU C1085,0.724,-0.0162,0.421,-0.166
PTPN9 C230 (UniProt P43378),-0.206,-0.16,-0.226,-0.217

Target,log2 mean competition ratio ([1]; 50 µM),log2 mean competition ratio ([1]; 200 µM),log2 mean competition ratio ([2]; 50 µM),log2 mean competition ratio ([2]; 200 µM)
PRRC2A C1821 (UniProt P48634),-0.03,-0.17,-0.216,-0.149
RAB7A C143 (UniProt P51149),0.186,-0.0459,0.562,0.0569
PSME3 C92,-0.0194,0.00662,-0.0089,0.0151
RAB11FIP2 C384,-0.227,-0.0667,-0.366,-0.0288
RAB3IL1 C29,–,–,-0.13,0.209
PSAT1 C291 (UniProt Q9Y617),-0.249,-0.133,0.027,-0.316
PRRC2B C1184,–,–,0.145,0.197
RAD17 C141 (UniProt O75943),-0.217,0.13,-0.0424,0.288
PSAP C33 (UniProt P07602),–,–,0.61,0.461
PSMC5 C209,0.191,0.172,0.0441,0.0431
PUM1 C5 (UniProt Q14671),–,–,0.241,0.375
PURB C273 (UniProt Q96QR8),–,–,-0.104,0.264
PUS3 C453 (UniProt Q9BZE2),–,–,-0.277,0.281
PRRC2B C525,0.243,-0.0718,0.173,-0.122
RABGGTA C516 (UniProt Q92696),–,–,0.016,-0.0122
PSMD2 C459 (UniProt Q13200),–,–,0.18,-0.124
PTPN13 C2408 (UniProt Q12923),0.428,0.195,0.357,0.0616
RAD51 C31 (UniProt Q06609),–,–,-0.37,0.105
PSMC2 C377 (UniProt P35998),0.0671,0.231,-0.231,0.0837
RABGAP1 C969 (UniProt Q9Y3P9),–,–,0.101,0.0411

# A different layout for some results above:
Target	log2 mean competition ratio ([1]; 50 µM)	log2 mean competition ratio ([1]; 200 µM)	log2 mean competition ratio ([2]; 50 µM)	log2 mean competition ratio ([2]; 200 µM)
RAB11FIP2 C384	-0.227	-0.0667	-0.366	-0.0288
RAB3IL1 C29	–	–	-0.13	0.209
PSAT1 C291 (UniProt Q9Y617)	-0.249	-0.133	0.027	-0.316
PRRC2B C1184	–	–	0.145	0.197
RAD17 C141 (UniProt O75943)	-0.217	0.13	-0.0424	0.288
PSAP C33 (UniProt P07602)	–	–	0.61	0.461
PSMC5 C209	0.191	0.172	0.0441	0.0431
PUM1 C5 (UniProt Q14671)	–	–	0.241	0.375
